# Screen size: about 340,000 compounds; about 1,300 (0.38%) were called active. Inconclusive results, whose numbers are uncertain, are shown with a selection of clear calls.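 Rule for the calls: active = maximum activity change below -70%; inconclusive = maximum activity change between -70% and -50%; inactive = maximum activity change above -50%.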
# Chains of the proteins cited; added tags and fusions are not shown. Lines headed by an entry give the natural chain unless they say otherwise; changes in a name come on top.
# UniProt Q12809: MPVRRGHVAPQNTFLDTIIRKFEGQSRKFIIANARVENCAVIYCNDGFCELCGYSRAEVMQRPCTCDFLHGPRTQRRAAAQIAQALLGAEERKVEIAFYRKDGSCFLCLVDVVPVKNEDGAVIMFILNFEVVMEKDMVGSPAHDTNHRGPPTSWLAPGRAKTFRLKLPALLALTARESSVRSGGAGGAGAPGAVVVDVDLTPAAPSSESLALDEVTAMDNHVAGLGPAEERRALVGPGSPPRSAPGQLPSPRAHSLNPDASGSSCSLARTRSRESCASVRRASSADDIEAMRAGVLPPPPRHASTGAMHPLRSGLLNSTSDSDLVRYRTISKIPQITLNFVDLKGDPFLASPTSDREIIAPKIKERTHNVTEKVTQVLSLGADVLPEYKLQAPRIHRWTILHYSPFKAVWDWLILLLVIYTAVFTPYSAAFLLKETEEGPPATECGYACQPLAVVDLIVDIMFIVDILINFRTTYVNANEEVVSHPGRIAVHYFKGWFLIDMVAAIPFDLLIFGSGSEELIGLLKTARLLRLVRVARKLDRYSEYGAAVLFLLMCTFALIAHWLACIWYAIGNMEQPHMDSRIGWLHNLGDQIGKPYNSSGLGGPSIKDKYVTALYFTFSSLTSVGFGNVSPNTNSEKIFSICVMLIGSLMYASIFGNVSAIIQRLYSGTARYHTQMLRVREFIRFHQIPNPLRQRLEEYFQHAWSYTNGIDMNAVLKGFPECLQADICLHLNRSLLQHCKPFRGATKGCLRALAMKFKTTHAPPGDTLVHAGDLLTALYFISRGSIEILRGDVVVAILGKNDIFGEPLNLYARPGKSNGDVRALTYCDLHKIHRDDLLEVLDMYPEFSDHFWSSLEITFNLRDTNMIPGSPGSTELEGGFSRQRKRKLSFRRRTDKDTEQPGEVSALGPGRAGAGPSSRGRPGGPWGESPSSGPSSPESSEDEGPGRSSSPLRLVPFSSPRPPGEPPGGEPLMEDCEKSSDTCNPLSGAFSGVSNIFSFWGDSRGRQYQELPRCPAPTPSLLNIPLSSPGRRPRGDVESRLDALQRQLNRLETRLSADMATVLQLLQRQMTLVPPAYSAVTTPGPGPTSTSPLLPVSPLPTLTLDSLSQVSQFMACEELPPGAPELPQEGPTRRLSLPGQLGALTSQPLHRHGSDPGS
# Target: Voltage-gated inwardly rectifying potassium channel KCNH2 (Homo sapiens) (UniProt Q12809)
# Assay: qHTS for Inhibitors of KCHN2 3.1: Wildtype qHTS
# Conditions: U2OS, BacMam KCNH2, thallium flux FluxOr; at 1.84 µM, active compounds read low
# Description: Many antipsychotic drugs that inhibit the neurotransmitter dopamine also bind to hERG1 channel which might help explain their antipsychotic activity but also produces cardiac side effects. The discovery of the novel KCNH2 3.1 isoform offers a potential new target for the development of antipsychotic drugs without cardiac side effects. This proposal will use a high throughput thallium flux assay developed for KCNH2 to screen compounds that modulate the activity of KCNH2 3.1. The wild type KCNH2 channel will also be screened in parallel to help define the selective modulators of this KCNH2 3.1 potassium channel. The resulting compounds will be validated in electrophysiology experiments. The availability of animal models will allow future testing in vivo for effects on memory and other aspects of animal physiology linked with psychosis. NIH Chemical Genomics Center [NCGC] NIH Molecular Libraries Probe Centers Network [MLPCN] MLPCN Grant: MH096539 Assay Submitter (PI): James Barrow, Johns Hopkins University, Lieber Institute for Brain Development
# U2OS cells were resuspended in cell media containing 10% fetal calf serum (FCS) at a concentration of 2 million cells / mL. The solution was treated with the Wild-type virus at 2.03 x 10^8 / mL and allowed to incubate at room temperature in the dark. After 4 hours of incubation, DMEM + 10% fetal bovine serum (FBS) was added to the cell solution. Three microliter was then dispensed into a 1536 tissue culture treated black assay plates which were incubated overnight at 37 C. Two microliter of loading buffer (HBSS + HEPES + Red40 dye quencher + FluxOr dye) was added and the assay plates were incubated for 45 min at room temperature in the dark. […] A stimulation buffer was added to the plate and the second kinetic read (2 min) was obtained. The rate constant was calculated from the kinetic reads and normalized to the positive and negative DMSO controls.
# % is set by controls: 0 for no effect and ±100 for the full control effect.
row,SMILES,activity change
1,O=C(COC(=O)c1ccncc1)c1ccc(Cl)c(Cl)c1,inactive: -4.79%
2,CCOC(=O)C(C)Sc1nc2c(c(=O)[nH]c(=O)n2C)n1Cc1ccc(Cl)cc1 (centres undefined),inconclusive: -51.6%
3,CCOC(=O)C1(CCOc2ccccc2)CCN(Cc2ccc(OCCO)cc2)CC1,active: -77%
4,O=C(NNC(=O)c1cc(-c2cccnc2)nc2ccccc12)Nc1ccc(Cl)cc1,inconclusive: -53.9%
5,O=C(O)c1ccccc1C(=O)Nc1ccccc1,inactive: 13.7%
6,Cc1nonc1NC(=O)CSc1nnc(-c2ccoc2C)n1CC(C)C,inactive: 0.252%
7,O=C(NNC(=O)c1cncc(Br)c1)c1ccncc1,inactive: -8.75%
8,COc1ccc(C(=O)O)cc1S(=O)(=O)Nc1ccc(N2CCCCC2)cc1,inactive: -13.2%
9,Cc1c2c(n3c(nc4ccccc43)c1C#N)N(CCCN(C)C)CC2,inconclusive: -51.5%
10,CCOC(=O)C1(CCc2ccccc2)CCN(Cc2ccc(C(=O)OC)cc2)CC1,active: -108%
11,COc1ccc(CNC(=O)C2(CC3CC(c4ccccc4)=NO3)CCN(C(=O)CCCCCBr)CC2)cc1 (centres undefined),active: -112%
12,COc1ccc(CCn2c(=N)c(C(=O)NCC3CCCO3)cc3c(=O)n4ccccc4nc32)cc1 (centres undefined),inconclusive: -69%
13,C#CCN1C(=O)S/C(=C\c2ccc(-c3ccc(C(=O)O)cc3C)o2)C1=O,inconclusive: -62.5%
14,CCOc1ccc(CN(C)CC(=O)NCc2ccc(F)cc2)cc1,inconclusive: -57.3%
15,COc1cc(Cl)c(CN2CCC(CO)(CCOc3ccccc3)CC2)cc1OC,active: -74.1%
16,COc1ccc(NC(=O)NCCCN2CCC(Cc3ccccc3)CC2)cc1,inactive: -43.9%
17,Cc1ccc(C(=O)NN2C(=O)c3ccc(S(=O)(=O)c4ccc(C(=O)O)cc4)cc3C2=O)cc1,inactive: 3.05%
18,C=CCn1c(SCC(=O)NCc2ccccc2)nnc1-c1cc(Br)ccc1O,inconclusive: -55.4%
19,COc1ccc(C)cc1NC(=O)CCN1CCN(C/C=C/c2ccccc2)CC1,inconclusive: -67.7%
20,O=C(CCN1CCCCC1)N1CCc2c([nH]c3ccccc23)C1c1cccnc1 (centres undefined),inconclusive: -58.5%
21,O[C@H]1C[C@H](c2ccc(Cl)cc2)N(Cc2cccs2)C[C@@H]1n1cc(C2CC2)nn1,inconclusive: -50.2%

# Seven entries out of the list, sorted by length of the SMILES, descending:
row,SMILES,activity change
11,COc1ccc(CNC(=O)C2(CC3CC(c4ccccc4)=NO3)CCN(C(=O)CCCCCBr)CC2)cc1 (centres undefined),active: -112%
2,CCOC(=O)C(C)Sc1nc2c(c(=O)[nH]c(=O)n2C)n1Cc1ccc(Cl)cc1 (centres undefined),inconclusive: -51.6%
4,O=C(NNC(=O)c1cc(-c2cccnc2)nc2ccccc12)Nc1ccc(Cl)cc1,inconclusive: -53.9%
20,O=C(CCN1CCCCC1)N1CCc2c([nH]c3ccccc23)C1c1cccnc1 (centres undefined),inconclusive: -58.5%
3,CCOC(=O)C1(CCOc2ccccc2)CCN(Cc2ccc(OCCO)cc2)CC1,active: -77%
18,C=CCn1c(SCC(=O)NCc2ccccc2)nnc1-c1cc(Br)ccc1O,inconclusive: -55.4%
14,CCOc1ccc(CN(C)CC(=O)NCc2ccc(F)cc2)cc1,inconclusive: -57.3%

# The results go on.

row,SMILES,activity change
1,CC(=O)NS(=O)(=O)c1ccc(NC(=O)c2ccc(NC(=O)c3cccs3)cc2)cc1,active: -228%
2,O=C(COC(=O)Cc1c[nH]c2ccccc12)Nc1ccc(Cl)cc1,inconclusive: -69.6%
3,Nc1nonc1-c1noc(CCCCCN2C(=O)c3ccccc3C2=O)n1,inconclusive: -59%
4,C=CCn1c(=O)/c(=C/c2cc(OC)c(OC)c(OC)c2)s/c1=C(/C#N)c1nc2ccccc2n1C,inconclusive: -56.1%
5,COc1cc(C(C)=O)ccc1OCC(=O)N1CCCC1c1ccc2c(c1)OCCCO2 (centres undefined),inconclusive: -55.7%
6,Cc1oc(-c2ccccc2)nc1CS(=O)CC(=O)NC1CCCCCC1 (centres undefined),inactive: -5.51%
7,COC(=O)c1c(C)oc2cc(Br)c(OCC(=O)C(C)(C)C)cc12,inconclusive: -53.8%
8,Cc1ccc(NC(=O)Cn2nnc(C(=O)NCCc3ccccc3)c2N)c(C)c1,inactive: 1.45%
9,COC(=O)c1cccc(Nc2nc3ccccc3nc2C)c1,inconclusive: -58.8%
10,O=C(O)c1ccc2c(c1)C1C=CCC1C(c1ccncc1)N2 (centres undefined),inactive: -22.8%
11,CCCOc1cccc(C(=O)Nc2nnn(CCC)n2)c1,active: -113%
12,O=C(N/N=C1\CCCc2ccccc21)c1ccccc1Cl,inactive: -4.21%
13,NS(=O)(=O)c1ccc(CNC(=S)Nc2ccc(Cl)c(Cl)c2)cc1,inactive
14,C=CCn1c(SCC(=O)N(CC)c2c(N)n(Cc3ccccc3)c(=O)[nH]c2=O)nnc1-c1ccccc1OC,inactive: 4.89%
15,CC1CCCCC1NC(=O)CCCCn1c(=O)[nH]c2ccsc2c1=O (centres undefined),inconclusive: -50.4%
16,Cn1c(CNC(=O)CNS(=O)(=O)c2ccc(F)cc2F)cc(=O)n(C)c1=O,inconclusive: -50.3%
17,CN1C(=O)C(CC(=O)N2CCN(C(c3ccccc3)c3ccccc3)CC2)N(C)C1=O (centres undefined),inactive: 6.44%
18,COc1cccc(C(=O)Nc2nnc(S(=O)(=O)Nc3cccc(C)c3)s2)c1,inconclusive: -50.4%
19,COc1ccc(OC)c(NC(=O)CCCN2C(=O)C3C4C=CC(C4)C3C2=O)c1 (centres undefined),inactive: 0.318%
20,CCOC(=O)C1=C(C)N=C2SCCC(=O)N2[C@@H]1c1cccs1,inactive: -6.13%
21,CCOC(CN=c1nc(N(C)C)ss1)OCC,inactive: -5.05%

row,SMILES,activity change
1,CCn1nc(C)c(CN2CCC(C(=O)Nc3cccc(-c4cccc(F)c4)c3)CC2)c1C,inconclusive: -66.3%
2,CC(Sc1nc2ccccc2c(=O)n1CC1CCCO1)C(=O)N(C)Cc1ccccc1 (centres undefined),inconclusive: -63.8%
3,COc1ccc(CN2CCC(n3nccc3NC(=O)c3cccc(F)c3)CC2)cc1O,active: -109%
4,CCN(CCNC(=O)CN1CCN(Cc2ccc(Cl)cc2)C1=O)c1ccccc1,inactive: -0.27%
5,O=C(Nc1cccc(-n2cnnn2)c1)c1ccoc1COc1ccc(Cl)cc1,inconclusive: -57.1%
6,COC(=O)c1nnn(-c2nonc2N)c1CN1CCc2ccccc21,inconclusive: -51.8%
7,Cc1ccc(NC(=O)CN(C)C(=O)c2ccc(NS(=O)(=O)c3ccc4[nH]c(=O)[nH]c4c3)cc2)cc1,inconclusive: -57.2%
8,COc1ccc(N)cc1NC(=O)CN1CCOCC1,inconclusive: -52.2%
9,CCOC(=O)C1(CCc2ccccc2)CCN(Cc2nccn2CC)CC1,inactive: 8.31%
10,O=C(NNS(=O)(=O)c1ccc([N+](=O)[O-])cc1)C(=O)Nc1cccc(C(=O)O)c1,active: -112%
11,Cc1ccc(NC(=O)COC(=O)c2ccc(C)c(S(=O)(=O)N3CCOCC3)c2)cc1,inconclusive: -64.1%
12,Cc1ccc(Cl)cc1NC(=O)C1CCCCC1C(=O)O (centres undefined),inconclusive: -55.9%
13,COC(=O)c1ccc(C(=O)OC)c(NC(=O)C2CCCO2)c1 (centres undefined),inactive: -4.9%
14,CCOC(=O)C1(CCc2ccccc2)CCN(Cc2ccc(OC)cc2)CC1,active: -136%
15,O=[N+]([O-])c1ccc(/C=N/NC2=NS(=O)(=O)c3ccccc32)cc1,inactive: 1.67%
16,O=C1NC(=S)SC1=Cc1ccc(Cl)cc1,inactive: -2.23%
17,O=C(N/N=C/c1cccc(O)c1)c1ccccc1O,inconclusive: -61.9%
18,C[C@H](CO)N1C[C@H](C)[C@@H](CN(C)C)Oc2c(NC(=O)CCCCCC(=O)Nc3ccccc3N)cccc2C1=O,inconclusive: -52.4%
19,O=[N+]([O-])c1ccc(COc2ncnc3ccccc23)cc1,active: -163%
20,C=CCOC(=O)C(C#N)c1nc2ccccc2nc1N1CCN(Cc2ccccc2)CC1 (centres undefined),inconclusive: -53%
21,CC(=O)N(C)c1ccc(OCC(O)Cn2c3ccc(Cl)cc3c3cc(Cl)ccc32)cc1 (centres undefined),active: -75.5%

row,SMILES,activity change
1,COc1cc(OC)c(NS(=O)(=O)c2c(C)[nH]c(=O)[nH]c2=O)cc1Cl,inconclusive: -64.3%
2,O[C@@H]1C[C@H](c2ccccc2)N(CC2CCCCC2)C[C@H]1n1cc(C2CC2)nn1,inconclusive: -54.8%
3,Cc1ccc2[nH]c3c(=O)n(CC(=O)NCCCN4CCN(c5ccc(F)cc5)CC4)ncc3c2c1,inconclusive: -66.1%
4,O=C(CSc1nnc(CCCN2C(=O)c3cccc4cccc(c34)C2=O)n1-c1ccccc1)N1CCN(CCO)CC1,inactive: 4.27%
5,CN(C)CCC1(C2=CCCC2)CC/C(=C/c2ccc(Cl)cc2)C1=O (centres undefined),inconclusive: -52%
6,CN(C)c1ccc(C(CNC(=O)c2ccc(C#N)cc2)c2c[nH]c3ccccc23)cc1 (centres undefined),inconclusive: -62.1%
7,Cc1noc(C)c1NC(=O)Nc1ccc2c(c1)C(=O)N([C@H](C)CO)C[C@@H](C)[C@@H](CN(C)S(=O)(=O)c1cn(C)cn1)OCCCC[C@H](C)O2,inconclusive: -63.6%
8,O=C(CN1CCN(C(=O)c2ccco2)CC1)Nc1cc(C(F)(F)F)ccc1Cl,inconclusive: -64.2%
9,FC(F)Oc1ccc(/C=N/c2c(-c3ccc(OC(F)F)cc3)nc3n2CCS3)cc1,inconclusive: -59.5%
10,Cc1ccc(-c2nc3ccccc3c(=O)n2O)cc1,inactive: 0.78%
11,O=[N+]([O-])c1ccc(CN2CCN(c3ccc4ccccc4n3)CC2)cc1,inconclusive: -53%
12,O=C(Nc1cccc(-c2cccc(F)c2)c1)C1CCN(C2CCC2)CC1,active: -97.1%
13,COc1ccc(C(=O)NC2CC2)cc1OC1CCN(Cc2ccc(Cl)cc2)CC1,active: -128%
14,Cc1ccc(OCc2ccc(C(=O)Nc3cc(C)on3)o2)c([N+](=O)[O-])c1,inconclusive: -54.9%
15,COc1ccc(CN2CCN(Cc3cc(=O)oc4cc(C)ccc34)CC2)c(OC)c1OC,inconclusive: -61.8%
16,COc1ccc(-n2nc(C(=O)NCC(=O)NCCCN3CCOCC3)c3ccccc3c2=O)cc1,inactive: -12.3%
17,COc1ccc(CN2C(=O)C(CC(=O)NC3CCCC3)CC(C(=O)N(C(C)C)C(C)C)=C2C)cc1 (centres undefined),inconclusive: -58%
18,OC(COc1cccc2ccccc12)CN1CCN(c2ccccn2)CC1 (centres undefined),inconclusive: -57.4%
19,CCCNC(=O)c1ccc(N2CCC3(CC2)CC(c2ccccc2)=NO3)c(NC(=O)c2ccco2)c1,inconclusive: -58.7%
20,CCOC(=O)c1ccc(NC(=O)c2nc[nH]c2C(=O)N[C@H](C)c2ccccc2)cc1,inconclusive: -50.4%
21,N#C/C(=C\c1ccc(N2CCCCC2)o1)C(=O)Nc1cccc(Br)c1,inconclusive: -68.9%
